# Experimental data reported in article PMC7819943, “Rice protein-binding microarrays: a tool to detect cis-acting elements near promoter regions in rice”.
# By UniProt entry, the sequences of proteins in these tests, tags left out.
# UniProt Q0JBA9, entry or part of it: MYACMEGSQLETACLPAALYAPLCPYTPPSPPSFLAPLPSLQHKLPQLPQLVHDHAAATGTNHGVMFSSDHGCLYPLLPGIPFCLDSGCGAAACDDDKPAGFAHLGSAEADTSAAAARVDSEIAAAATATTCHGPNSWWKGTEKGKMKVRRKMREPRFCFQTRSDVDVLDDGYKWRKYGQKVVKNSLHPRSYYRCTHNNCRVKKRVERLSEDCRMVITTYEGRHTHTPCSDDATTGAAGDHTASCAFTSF
# The other results are listed elsewhere or left out.
# Target: OsWRKY34 (Oryza sativa, UniProt Q0JBA9 1-250)
# Assay: protein-binding microarray (RPBM); PBS, 2% BSA, 51.3 ng/ul salmon testes DNA, 50 uM zinc acetate, 200 nM TF, 25 C, 1 h; high values mean tight binding
# Details: protein: recombinant; tags: N-terminal polyhistidine and DsRed monomer fusion (pET32a); label: CyDye5-dUTP incorporated in the synthesized complementary strand; 3' TTTTT single-stranded linker to array surface; dsDNA, one strand shown
# Method in brief: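 The binding signal for each feature is its fluorescence intensity in arbitrary units. An Axon 4000B scanner was used to read a custom Agilent array that had been made double-stranded with Cy5-dUTP primer extension, blocked with 2% BSA, incubated at 25 °C for 1 h with 200 nM protein in PBS, 2% BSA, salmon testes DNA and 50 µM zinc acetate, and washed. The protein was an N-terminal polyhistidine–DsRed transcription factor fusion from E. coli BL21-CodonPlus, purified on Ni–NTA.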
row,Sequence,binding signal
1,CTTGTGCTGGCAGCAAAGTGCCCTCGTCCTGCCGAAGCTTCGGAGTCACCTAGTGCAG,9300 fluorescence intensity (a.u.)
2,ATGCATTCACAGCTACTAGCTACTATACAGTATACACACACGGAGTCACCTAGTGCAG,8560 fluorescence intensity (a.u.)
3,ATCTGTGACGGGCTATAGTTTGACTGGTCGTCTGGGTCAACGGAGTCACCTAGTGCAG,8840 fluorescence intensity (a.u.)
4,CATGAACCAATCTCCATTAGGCTTATTTCTCTTTCTTCATCGGAGTCACCTAGTGCAG,11500 fluorescence intensity (a.u.)
5,TTTCCCTTTGTTTTCTCTTTTCTTTTGGTACTTTTGTGTACGGAGTCACCTAGTGCAG,8280 fluorescence intensity (a.u.)
6,TCTATACATTTCCCGATCCGCCCCTGCAGCAAACCAAGACCGGAGTCACCTAGTGCAG,10400 fluorescence intensity (a.u.)
7,TTAATTACTCATTCCTCCCCGCAGTGCCATGTTCTTGAGTCGGAGTCACCTAGTGCAG,8780 fluorescence intensity (a.u.)
8,CGTAGTAGTGGATGGTAACATATTGGGAGGATTGGTTCAGCGGAGTCACCTAGTGCAG,8240 fluorescence intensity (a.u.)
9,CATCTCTAGCTAGCTCTTCTGGTGTAGGTGCTGTTACTATCGGAGTCACCTAGTGCAG,10100 fluorescence intensity (a.u.)
10,CTACCCCATTGTTAACGAGTTGATCGCAGTCGCCATTACCCGGAGTCACCTAGTGCAG,11200 fluorescence intensity (a.u.)
11,GAACGAGTTTCCTACTTTAGCTCCGCGTTCCTCACTTGCTCGGAGTCACCTAGTGCAG,8170 fluorescence intensity (a.u.)
12,ATTCTAGTAGTAGTTGTTTATCTTTGTTCTGTTGTTTCTTCGGAGTCACCTAGTGCAG,8520 fluorescence intensity (a.u.)
13,CTCTCCGCCGTCTCAACCTCCGCCGATTCTTCCCACCCAGCGGAGTCACCTAGTGCAG,8190 fluorescence intensity (a.u.)
14,GCTTCTGCGGAAAGGGAGGGTGTCGGTGCCAATATCATTACGGAGTCACCTAGTGCAG,8370 fluorescence intensity (a.u.)
15,CGTCGAACGTCCACTACCATCCTCTTGTTAATCCCGCAAACGGAGTCACCTAGTGCAG,8060 fluorescence intensity (a.u.)
16,AAGTTCTTGTCTCTCGCGTCACGTTGCTCGCTGCGTCGCTCGGAGTCACCTAGTGCAG,10600 fluorescence intensity (a.u.)
17,AACTAATACCCAACTCTTTTCGTTTATTAATTGTTATAACCGGAGTCACCTAGTGCAG,9340 fluorescence intensity (a.u.)
18,GGCGGACGGCACCGCCGGAGTGGGAGGAGGGAGGGAGGAGCGGAGTCACCTAGTGCAG,8820 fluorescence intensity (a.u.)
19,CGTTCCATTCCCGGCGTCGACCTCCGGCCGCTGTCACCGACGGAGTCACCTAGTGCAG,8280 fluorescence intensity (a.u.)
20,TAAAGTAAATGTTGATGGCTCTTATTGCGCATTCTCTGTTCGGAGTCACCTAGTGCAG,9540 fluorescence intensity (a.u.)
21,CTGCATCGTCGACATTTACTATTTCAGCTTTTACACTATTCGGAGTCACCTAGTGCAG,11200 fluorescence intensity (a.u.)

row,Sequence,binding signal
1,AATCACAACCATACACCACTCATTTCTACCTACTTTCTTACGGAGTCACCTAGTGCAG,10100 fluorescence intensity (a.u.)
2,CTATAGTGTGGACGTACGTTGACCACCCACATCGACGATGCGGAGTCACCTAGTGCAG,9000 fluorescence intensity (a.u.)
3,AGCCCTGTGGCAATTTGAGCATTTTTCCCGGAAGCAACGCCGGAGTCACCTAGTGCAG,8190 fluorescence intensity (a.u.)
4,TTCCGGGCACGCCGATCACGCACGCCGGCCGCGCCCGCCTCGGAGTCACCTAGTGCAG,9260 fluorescence intensity (a.u.)
5,GTCGCCCGCGCCGGCGCCCGCGCCGGCCACCCTATCCGCCCGGAGTCACCTAGTGCAG,8500 fluorescence intensity (a.u.)
6,CGTCGGCCCTTGTATTTTTGCAAAAAGGCCCTTTATTTTACGGAGTCACCTAGTGCAG,9220 fluorescence intensity (a.u.)
7,GCGGCGATCGATTTGTATATCAATATATGCTGTTCTTGTGCGGAGTCACCTAGTGCAG,8380 fluorescence intensity (a.u.)
8,CATATTTGTTGGATTATAAACATACGTTTCCTGTGATTCACGGAGTCACCTAGTGCAG,8990 fluorescence intensity (a.u.)
9,GCTATTCAAACCGTCGTGAGGCCTTATTTGCACTGATTTTCGGAGTCACCTAGTGCAG,12800 fluorescence intensity (a.u.)
10,CGCCGCTCACCTGCCAACCCACTCGACCGCGCGCCGCCGGCGGAGTCACCTAGTGCAG,10900 fluorescence intensity (a.u.)
11,GGTCAAATTCTCATTTTGCAATATCCCACAGCTAATTACACGGAGTCACCTAGTGCAG,9540 fluorescence intensity (a.u.)
12,GTCTTGGGCTTTTGGTGTCATGTTTTTCCTATTTTGCTAGCGGAGTCACCTAGTGCAG,8430 fluorescence intensity (a.u.)
13,TGGTGGATGCCCTGGAGGTTTGGGTTGAGATGGGAGTAGACGGAGTCACCTAGTGCAG,9770 fluorescence intensity (a.u.)
14,GTTACTGATCACACTACTTGTACTTTCCGCAAGTCATGCACGGAGTCACCTAGTGCAG,10500 fluorescence intensity (a.u.)
15,ACCCTGCGTATCTGATTTTGCGGTTCGAGGATGTTTTTTACGGAGTCACCTAGTGCAG,8660 fluorescence intensity (a.u.)
16,ACTCCGCCGCCTTCTGCTTCATGCGCAACTCCAATTCGGGCGGAGTCACCTAGTGCAG,10500 fluorescence intensity (a.u.)
17,GCTGCCTCTGTGCTCTCCGTCCCGGCACCGGCACGACACCCGGAGTCACCTAGTGCAG,9000 fluorescence intensity (a.u.)
18,AGCGGGCTTTGGTGCTTAAGTTCTTTCGGGTTTGTGTTCTCGGAGTCACCTAGTGCAG,11700 fluorescence intensity (a.u.)
19,ATAGCTCATTTGACCATCTTCCATCTATAGCTGTTAGCCACGGAGTCACCTAGTGCAG,13600 fluorescence intensity (a.u.)
20,CAACGTGTCACCTGATCAACACGCCACCTCGCTAACCGTACGGAGTCACCTAGTGCAG,8760 fluorescence intensity (a.u.)
21,TTACATCAATTTCAGAGTAAGTATGGTTGGTTGGTTGGTTCGGAGTCACCTAGTGCAG,13400 fluorescence intensity (a.u.)

# An excerpt of these results, bar-delimited.
row | Sequence | binding signal
7 | GCGGCGATCGATTTGTATATCAATATATGCTGTTCTTGTGCGGAGTCACCTAGTGCAG | 8380 fluorescence intensity (a.u.)
8 | CATATTTGTTGGATTATAAACATACGTTTCCTGTGATTCACGGAGTCACCTAGTGCAG | 8990 fluorescence intensity (a.u.)
9 | GCTATTCAAACCGTCGTGAGGCCTTATTTGCACTGATTTTCGGAGTCACCTAGTGCAG | 12800 fluorescence intensity (a.u.)
10 | CGCCGCTCACCTGCCAACCCACTCGACCGCGCGCCGCCGGCGGAGTCACCTAGTGCAG | 10900 fluorescence intensity (a.u.)
11 | GGTCAAATTCTCATTTTGCAATATCCCACAGCTAATTACACGGAGTCACCTAGTGCAG | 9540 fluorescence intensity (a.u.)
12 | GTCTTGGGCTTTTGGTGTCATGTTTTTCCTATTTTGCTAGCGGAGTCACCTAGTGCAG | 8430 fluorescence intensity (a.u.)
13 | TGGTGGATGCCCTGGAGGTTTGGGTTGAGATGGGAGTAGACGGAGTCACCTAGTGCAG | 9770 fluorescence intensity (a.u.)
14 | GTTACTGATCACACTACTTGTACTTTCCGCAAGTCATGCACGGAGTCACCTAGTGCAG | 10500 fluorescence intensity (a.u.)
15 | ACCCTGCGTATCTGATTTTGCGGTTCGAGGATGTTTTTTACGGAGTCACCTAGTGCAG | 8660 fluorescence intensity (a.u.)
16 | ACTCCGCCGCCTTCTGCTTCATGCGCAACTCCAATTCGGGCGGAGTCACCTAGTGCAG | 10500 fluorescence intensity (a.u.)
